Source: PubChem BioAssay AID2417 (National Center for Advancing Translational Sciences (NCATS), 2010)
In all, about 140,000 compounds went through this assay and about 4,300 (3.1%) were called active. This list was built around the results that the source calls inconclusive (neither active nor inactive); the mix of calls is not that of the screen.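 How the source made its calls: active means readout at or below -70, meaning at least 70% loss of cells showing the perinucleolar compartment, a nuclear body marking cancer cells; inconclusive means readout between -30 and a set limit; inactive means the rest.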

Assay: High Content Assay for Compounds that inhibit the Assembly of the Perinucleolar Compartment;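 further: plate controls were DMSO wells for no effect and camptothecin positive control wells for full effect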
Settings: PC3M PTB-GFP, PNC prevalence imaging, 16 h; at 10 µM; stronger effect = lower value
How it was run: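 Compounds are pinned in duplicate onto adhered PC3M cells stably expressing GFP-tagged PTB and incubated 16 h at 37 C. Cells are then fixed, nuclei stained with Hoechst, and PNC-positive cells counted.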

| SMILES | activity change (PNC), negative = inhibition |
| --- | --- |
| CCc1ccc(Nc2nnc(SCC(=O)Nc3cccc(S(=O)(=O)NC4=NCCCCC4)c3)s2)cc1 | inactive: 0% |
| Cc1ccccc1OCCCn1c(=O)sc2ccccc21 | inactive: 82.9% |
| CCCCNC(=S)NNC(=O)c1cccnc1 | active: -87.3% |
| c1ccc2c(CCNc3ncnc4nc[nH]c34)cccc2c1 | inconclusive: -48.8% |
| C/C(N)=C(/C#N)C(=O)CSc1nnc(NC(C)C)s1 | inconclusive: -32.9% |
| CCn1c(C(=O)N2CCc3ccccc3C2)cc2sccc21 | inactive: -22.3% |
| Clc1ccc(-c2onc3c2CCCC3)cc1 | inconclusive: -62.1% |
| O=C(N/N=C/c1ccc(O)cc1)c1cc(-c2ccc3c(c2)OCO3)n[nH]1 | inconclusive: -41% |
| CCn1c(SCc2cccc(C(F)(F)F)c2)nnc1-c1ccco1 | inconclusive: -52% |
| COc1ccc(C(=O)/C=C2/Sc3cc4c(cc3N2C)OCO4)cc1 | inactive: -5.79% |
| CC(C)(C)c1nnc2sc(SC/C(O)=C(\C#N)c3nc4ccccc4[nH]3)nn2c1=O | active: -95.4% |
| Cc1cccc(OCCC(=O)N(C)CC(=O)Nc2cccc3ccccc23)c1 | inconclusive: -34.8% |
| COc1ccc(C2(O)CC3CCC(C2)N3c2nc(C)cc(C)c2C#N)cc1 (stereo unspecified) | inactive: 34% |
| O=C(Nc1nc(-c2ccc(Cl)cc2Cl)cs1)c1ccc(OCC2CCCO2)cc1 (stereo unspecified) | inconclusive: -61.6% |
| CC(=O)NCc1cn2c(C)csc2n1 | inconclusive: -46.2% |
| O=C1CCCN1C(=O)CCC(=O)N1CCCC1=O | inconclusive: -35% |
| O=C(CSc1cn(CCNC(=O)c2ccc3ccccc3c2)c2ccccc12)NCc1ccco1 | inconclusive: -36.1% |
| Cc1cc2ccccc2n2c(SCC(=O)N3CCc4ccccc4C3)nnc12 | inconclusive: -56.3% |
| COc1ccc(NS(=O)(=O)c2ccc(N3CCOCC3)c(NC(=O)c3ccc(OC)cc3)c2)cc1 | inconclusive: -47.3% |
| Cc1cc(C)c(C#N)c(SCC(=O)NC2CC2)n1 | inconclusive: -68.3% |
| Cc1nnc(NC(=O)C2CCCO2)s1 (stereo unspecified) | inconclusive: -49.1% |
| CCOC(=O)COc1ccc(Br)cc1/C=C\c1[nH]c(=O)[nH]c(=O)c1[N+](=O)[O-] | inactive: -15.7% |
| Cc1ccccc1C(=O)N1CCc2cc(-c3nc(NC(=O)Cc4ccc5c(c4)OCO5)sc3C)ccc21 | inactive: -8.89% |

| SMILES | activity change (PNC), negative = inhibition |
| --- | --- |
| O=C(c1cccs1)N1N=C(c2ccccc2)CC1c1ccccc1 (stereo unspecified) | active: -105% |
| CCOc1cc(CNC2CCCC2)cc(Cl)c1OCc1ccccc1 | inconclusive: -36.6% |
| Cc1c(NC(=O)C(C)OC(=O)c2sc3ccccc3c2Cl)c(=O)n(-c2ccccc2)n1C (stereo unspecified) | active: -116% |
| Cn1nc(C(F)(F)F)c(/C=N/OC(=O)c2ccccc2Cl)c1SCc1ccc(Cl)cc1 | inconclusive: -47.5% |
| COc1ccc2cc(CN(CC3COCCO3)S(=O)(=O)c3c(C)cc(C)cc3C)c(=O)[nH]c2c1 (stereo unspecified) | inconclusive: -44.9% |
| CCOc1ccc(NS(=O)(=O)c2cc(OC)ccc2OC)cc1 | inconclusive: -78.5% |
| COc1ccc(CCC(=O)NC2=NCCS2)cc1OC | active: -100% |
| COc1ccc(OCc2nnc(SCC(N)=O)n2N)cc1 | inconclusive: -35.2% |
| C=CCNc1nc(N)c(C(=O)Nc2cc(C)on2)s1 | inconclusive: -46.1% |
| CCOCCn1c(CN2CCOCC2)nc2c1c(=O)[nH]c(=O)n2C | inconclusive: -34.6% |
| Cc1nc(CC(=O)Nc2nc(C(C)(C)C)cs2)cs1 | inconclusive: -30.3% |
| Cn1c(SCC(N)=O)nnc1C1CCN(C(=O)NCc2ccccc2)CC1 | inconclusive: -63% |
| COc1ccc(-n2cccc2C=O)cc1 | inactive: 20.3% |
| CC1=CC(C)(C)N(C(=O)CSc2ncn[nH]2)c2ccccc21 | inconclusive: -50.8% |
| COc1ccc(N=C2S/C(=C\c3ccco3)C(=O)N2CC(C)C)cc1 | inactive: -18.5% |
| CC(=O)c1ccc(NC(=O)C(C)OC(=O)c2ccc(NS(=O)(=O)c3ccc(F)c(F)c3)cc2)cc1 (stereo unspecified) | active: -100% |
| Cc1ccc(S(=O)(=O)N2CCC(=O)N(C(COCc3cccc(Cl)c3)Cc3ccccc3)CC2)cc1 (stereo unspecified) | inconclusive: -35.2% |
| Cc1cc(C)n(CCc2nc(-c3ccc(C)o3)cs2)n1 | inconclusive: -32.8% |
| O=C(NC(Cc1ccccc1)C(=O)OCC(=O)N1CCc2ccccc21)c1ccco1 (stereo unspecified) | inconclusive: -39.6% |
| Cc1cc(C(=O)OCC(=O)Nc2ccc(F)cc2[N+](=O)[O-])c2ccccc2n1 | inactive: -11.8% |
| Cc1cc(C)nc(Nc2n[nH]c(-c3ccccc3Br)n2)n1 | inconclusive: -34.7% |
| COCCN(C(=O)Cc1cccs1)c1nnc(-c2cccnc2)s1 | active: -100% |
| O=C(COC(=O)c1ccccc1C(=O)c1ccc(Cl)cc1)NC(c1ccccc1)c1ccccc1 | inactive: 12.2% |

Part of the list above in order of formula weight, ascending.

| SMILES | activity change (PNC), negative = inhibition |
| --- | --- |
| Cn1c(SCC(N)=O)nnc1C1CCN(C(=O)NCc2ccccc2)CC1 | inconclusive: -63% |
| O=C(NC(Cc1ccccc1)C(=O)OCC(=O)N1CCc2ccccc21)c1ccco1 (stereo unspecified) | inconclusive: -39.6% |
| Cc1ccc(S(=O)(=O)N2CCC(=O)N(C(COCc3cccc(Cl)c3)Cc3ccccc3)CC2)cc1 (stereo unspecified) | inconclusive: -35.2% |
